Experimental data published in publication PMC6815954 (Theranostics, 2019).

Assay: peptide synthesis
Conditions: conjugation step

## PEPTIDE1{[ac].D.E.V.D.[Cys(StBu)].[Pra(AmBF3)].[CBT]}$$$$V2.0
  conjugation yield: 72%

HELM strings list residues between dots; [ac] is acetyl, [am] amide, other brackets name non-standard units.
